The nature of data set [1]: general procedure: Fmoc solid-phase peptide synthesis; Rink Amide resin (miniCD4 peptides); Serine preloaded Chlorotrityl resin, PS 2-CT-Ser(tBu) (PS1); HATU/DIEA. As to conditions: late stage modification step.
The nature of data set [2]: general procedure: Fmoc solid-phase peptide synthesis; Rink Amide resin; HATU/DIEA. As to conditions: whole synthesis, scale 100 μmoles, several disulfide bridges.
A short description of data set [3]: general procedure: Fmoc solid-phase peptide synthesis; PS 2-CT-Ser(tBu); HATU/DIEA. As to conditions: whole synthesis, scale 100 μmoles.

This note sets out measurements from patent US9907860B2 (INSTITUT PASTEUR, priority 2014, dated 2018).

In data set [1], SATP-γAbu-PS1 yielded a step yield of 76%. For the substance Tpa-NLHFCQLRCK11SLGLLGRCApTU1CACV-amide, in data set [2], the isolated yield is 6%. On the same count and under the same terms, then “Tpa-NLHK5CQLRCR11SLGLLGRCApTU1CACV-amide”, with 21%.

Substance “Tpa-NLHK5CQLRCS11SLGLLGRCApTU1CACV-amide” returned an isolated yield in data set [2] of 15%. In the case of “Tpa-NLHK5CQLRCSSLGLLGRCAGS-Bip-CACV-amide”, the isolated yield in data set [2] turned out to be 21%.

γAbu-PS1 registered an isolated yield in data set [3] of 37%.
